# PubChem BioAssay AID1259424 | University of Nebraska Medical Center | 2018
# Aim: 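Find knockdowns that reproduce the expression shifts seen after KSR1 loss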 (primary screen)
# Cells: human HCT116 colon cancer cells
# Reagent: siRNA pool against human genes, 50 nM
# Measurement: 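Log2 levels of six mRNAs (branched-DNA multiplex), adjusted by two reference genes and the non-targeting median, then scored against the average KSR1 knockdown pattern as Pearson r and euclidean distance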
# Reading the numbers: mean correlation with KSR1 profile and KSR1 correlation: higher = expression change more like KSR1 knockdown; mean distance from KSR1 profile: higher = expression change less like KSR1 knockdown
# Here is one part, drawn at random, of about 14,000 deposited reagents. 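Higher correlation or smaller distance means closer resemblance to KSR1 loss; control wells, including KSR1 knockdowns, recur on many plates.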 Some reagents were tested in more than one well and are listed for each. Not given: the time to read-out.
Target gene,mean correlation with KSR1 profile,mean distance from KSR1 profile,"KSR1 correlation, replicate 1","KSR1 correlation, replicate 2","KSR1 correlation, replicate 3"
HYAL3,-0.464,1.43,-0.0458,-0.255,-0.471
ZNF282,0.183,2.27,-0.0167,0.278,0.202
IAPP,0.419,1.8,0.678,0.111,0.48
GSN,-0.086,3.1,0.0988,0.0137,-0.191
AKAP10,-0.675,2.34,-0.63,-0.849,-0.686
TNFRSF9,-0.81,2.52,-0.769,-0.706,-0.86
KMO,-0.265,2.43,-0.176,-0.314,-0.269
ENO2,-0.918,1.84,-0.715,-0.665,-0.945
GABBR2,0.853,1.25,0.776,0.92,0.8
TMEM33,-0.394,2.96,-0.296,-0.33,-0.563
RTF2,-0.502,1.88,-0.397,-0.532,-0.591
CPQ,-0.424,3.23,-0.315,-0.39,-0.484
EEF1G,0.282,1.94,0.307,0.253,0.149
SERPING1,-0.347,4.49,-0.301,-0.321,-0.488
GDAP1,-0.0591,1.32,0.0626,-0.358,-0.187
CLDN12,-0.77,2.31,-0.502,-0.847,-0.896
SFTPA1,0.188,1.15,0.149,0.212,0.287
RHOG,-0.123,3.71,-0.194,-0.104,-0.0179
OCLN,-0.317,5.36,-0.237,-0.188,-0.371
HLA-B,-0.265,2.95,-0.179,-0.299,-0.396
KLK5,-0.567,3.09,-0.353,-0.581,-0.558
FTH1,0.139,1.56,0.227,0.208,0.216
ADCYAP1,-0.0707,1.53,0.036,-0.131,-0.191
ZIC2,0.0795,2.84,0.344,0.223,-0.0243
SLC35F6,-0.674,1.83,-0.389,-0.581,-0.824
C7,0.198,3.04,0.16,0.213,0.0183
KCNAB1,-0.197,2.02,-0.268,-0.19,-0.237
TOP6BL,-0.385,2.27,-0.207,0.395,-0.649
E2F5,-0.228,1.63,-0.305,-0.237,-0.413
AKIP1,-0.618,5.69,-0.317,-0.365,-0.51
TUBGCP2,-0.335,1.64,-0.274,-0.56,-0.0232
GNA11,-0.216,3,-0.164,-0.171,-0.465
PALD1,-0.0655,3.3,0.0267,-0.15,-0.0322
PEX6,0.554,1.2,0.231,0.457,0.743
BEST1,-0.609,2.24,-0.273,-0.594,-0.696
KIF12,0.107,3.56,0.0922,0.0933,0.0511
MSH2,0.177,1.43,0.204,0.000602,-0.0964
ALPL,-0.247,2.81,-0.133,-0.429,-0.273
PRPF39,-0.575,6.02,0.351,0.059,-0.474
AKAP8L,-0.246,1.33,0.0695,-0.601,-0.145
AKAP8L,0.428,1.57,0.224,0.175,0.357
CTSL,-0.0812,2.44,-0.336,-0.221,0.122
RAB33A,0.226,1.41,0.056,-0.0125,0.378
CITED1,0.321,1.64,0.359,0.777,0.0565
IFIT1,-0.311,2.57,-0.337,-0.429,-0.481
ACTL6A,-0.575,2.97,-0.436,-0.715,-0.591
CST1,0.26,3.79,0.279,0.322,0.0929
LIPE,0.438,2.19,0.476,0.224,0.351
PCK2,0.18,1.77,0.337,0.467,-0.164
CARD6,0.0397,1.55,0.185,0.16,0.181
DPY30,0.241,1.64,0.237,0.0199,0.0887
KLHL20,0.141,1.68,0.263,0.268,0.141
MCEE,0.014,3.5,0.171,-0.571,0.257
AKR1D1,0.235,4.98,0.0995,0.172,-0.222
SNRK,0.0675,1.65,0.648,-0.285,-0.681
CYRIA,0.755,1.91,0.606,0.651,0.665
FAM184A,0.714,1.63,0.747,0.746,0.697
ANP32B,-0.409,1.38,-0.188,-0.738,-0.499
PDE1A,0.262,1.99,0.0875,0.265,0.348
TXNRD2,-0.505,1.94,-0.453,-0.565,-0.515
TMEM131L,-0.478,1.3,-0.424,-0.469,-0.466
YKT6,-0.369,2.76,-0.204,-0.497,-0.381
RECQL,-0.0872,1.72,-0.000293,-0.0471,0.073

Just “mean correlation with KSR1 profile”, for 3 of the entries above:
KMO = -0.265
ENO2 = -0.918
GABBR2 = 0.853
